From article PMC6070864, “The Bacteriophage T4 MotB Protein, a DNA-Binding Protein, Improves Phage Fitness”

Target: MotB containing a C-terminal intein tag with a chitin binding domain (bacteriophage T4)
Assay: pull-down; lysate of BL21(DE3)/pLysE producing MotB-Intein/CBD applied to chitin resin; washed with CB buffer containing 500 mM NaCl, then 1 M NaCl; resin proteins on SDS-PAGE (Coomassie), bands identified by mass spectrometry; MotB not denatured, host DNA present

B1: StpA (protein, UniProt P0ACG1 1-134)
chain: MSVMLQSLNNIRTLRAMAREFSIDVLEEMLEKFRVVTKERREEEEQQQRELAERQEKISTWLELMKADGINPEELLGNSSAAAPRAGKKRQPRPAKYKFTDVNGETKTWTGQGRTPKPIAQALAEGKSLDDFLI
- binding: binds

These are yes or no findings as the source states them, for the method shown. In cells and extracts the contact can be indirect. Binding calls can cover weak binding; strength is not graded here.
